Measured values taken from article PMC6895051.

Amino acid sequences for entries named in this document (tags omitted).
UniProt O14965: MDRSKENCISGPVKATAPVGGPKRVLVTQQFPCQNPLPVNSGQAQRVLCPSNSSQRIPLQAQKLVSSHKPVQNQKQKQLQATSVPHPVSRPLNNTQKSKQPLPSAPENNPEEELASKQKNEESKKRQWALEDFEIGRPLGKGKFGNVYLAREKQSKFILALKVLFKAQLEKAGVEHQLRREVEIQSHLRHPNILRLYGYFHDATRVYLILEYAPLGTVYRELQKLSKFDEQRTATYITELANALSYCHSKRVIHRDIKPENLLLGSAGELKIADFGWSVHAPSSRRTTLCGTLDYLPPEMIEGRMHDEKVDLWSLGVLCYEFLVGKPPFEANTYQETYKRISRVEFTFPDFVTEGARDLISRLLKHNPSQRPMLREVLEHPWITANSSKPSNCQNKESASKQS
UniProt P06733: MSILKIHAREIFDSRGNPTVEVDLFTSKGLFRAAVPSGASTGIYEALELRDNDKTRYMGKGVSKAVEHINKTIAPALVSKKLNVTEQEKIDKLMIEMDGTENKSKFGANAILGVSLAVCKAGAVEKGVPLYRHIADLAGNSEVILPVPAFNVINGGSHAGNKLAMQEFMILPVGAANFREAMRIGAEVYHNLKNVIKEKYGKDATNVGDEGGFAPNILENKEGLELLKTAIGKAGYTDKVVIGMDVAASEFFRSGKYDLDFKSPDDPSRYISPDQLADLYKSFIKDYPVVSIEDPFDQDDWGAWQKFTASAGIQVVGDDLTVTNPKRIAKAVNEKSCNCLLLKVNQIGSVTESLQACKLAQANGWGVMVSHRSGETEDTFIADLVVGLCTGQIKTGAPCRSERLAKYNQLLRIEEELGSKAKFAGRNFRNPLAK
UniProt P18669: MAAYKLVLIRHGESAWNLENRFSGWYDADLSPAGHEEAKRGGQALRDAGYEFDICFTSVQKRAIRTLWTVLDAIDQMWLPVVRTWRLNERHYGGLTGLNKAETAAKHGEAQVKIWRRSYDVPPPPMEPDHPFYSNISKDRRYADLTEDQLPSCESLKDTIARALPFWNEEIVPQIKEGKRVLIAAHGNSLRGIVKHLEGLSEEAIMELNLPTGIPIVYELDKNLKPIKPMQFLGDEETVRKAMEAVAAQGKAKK
UniProt P14618: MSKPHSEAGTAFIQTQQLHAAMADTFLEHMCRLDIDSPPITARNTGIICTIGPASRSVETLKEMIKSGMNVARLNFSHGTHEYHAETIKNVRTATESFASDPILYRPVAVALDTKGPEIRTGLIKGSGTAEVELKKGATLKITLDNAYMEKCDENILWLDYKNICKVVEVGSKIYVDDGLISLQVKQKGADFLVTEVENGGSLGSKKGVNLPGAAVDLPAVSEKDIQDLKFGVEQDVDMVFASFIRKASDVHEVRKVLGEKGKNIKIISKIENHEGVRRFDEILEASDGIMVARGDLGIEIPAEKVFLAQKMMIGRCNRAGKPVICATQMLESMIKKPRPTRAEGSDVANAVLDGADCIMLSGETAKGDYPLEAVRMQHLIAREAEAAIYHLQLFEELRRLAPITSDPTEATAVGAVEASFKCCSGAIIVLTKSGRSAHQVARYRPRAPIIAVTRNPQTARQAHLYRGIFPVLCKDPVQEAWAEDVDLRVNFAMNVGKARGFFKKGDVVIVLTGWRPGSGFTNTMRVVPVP

Biological target: FLAG-tagged Aurora-A (UniProt O14965)
Experiment: affinity purification with mass spectrometry; Flag-Aurora A expressed in 293T and DLD1 cells, isolated by IP, eluted with 200 μg/ml flag peptide, nano LC-MS/MS

| binding | Substance |
| --- | --- |
| binds | ENOA (endogenous) (from UniProt P06733 1-434) (enzyme) |
| binds | PGAM1 (endogenous) (from UniProt P18669 1-254) (enzyme) |
| binds | PKM (endogenous) (from UniProt P14618 1-531) (enzyme) |

Results are given in words; binding and its absence hold for the method and conditions named. In cells and extracts the contact can be indirect. Here binding means that the protein was enriched with, or labelled near, the bait; the list need not be complete.
